Where a chain is given by its changes, count along the chain named. No constants are given. Whether binding was seen depends on the method and setting. In cells and extracts the contact can be indirect. Some binding calls cover weakened binding; strength is not graded here. Sequences can lack the tags named with a protein.
Columns and labels:
[1] = biological target: T1, FLAG-tagged Nesprin-4 wild type (Nesp4^WT) (mouse) (UniProt Q8CII8); assay: co-IP; HEK293 cells transfected with FLAG-tagged Nesprin-4 (WT or AA) or an empty FLAG control, lysed in RIPA buffer 48 h later; anti-FLAG M2 beads, 1-2 h at 4°C; western blot probed with anti Kif5b
T1 sequence: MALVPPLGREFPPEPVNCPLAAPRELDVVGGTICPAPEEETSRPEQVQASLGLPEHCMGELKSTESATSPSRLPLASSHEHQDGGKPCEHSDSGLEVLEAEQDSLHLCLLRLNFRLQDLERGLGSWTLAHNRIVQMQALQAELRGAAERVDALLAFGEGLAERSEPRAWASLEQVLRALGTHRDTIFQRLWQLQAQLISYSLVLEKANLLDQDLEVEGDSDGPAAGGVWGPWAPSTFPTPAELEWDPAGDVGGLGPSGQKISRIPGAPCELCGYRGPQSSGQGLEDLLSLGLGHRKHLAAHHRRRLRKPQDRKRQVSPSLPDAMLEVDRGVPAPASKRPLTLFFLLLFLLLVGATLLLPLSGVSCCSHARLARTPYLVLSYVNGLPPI

By UniProt entry, the sequences of proteins in these tests, tags left out.
UniProt P33176: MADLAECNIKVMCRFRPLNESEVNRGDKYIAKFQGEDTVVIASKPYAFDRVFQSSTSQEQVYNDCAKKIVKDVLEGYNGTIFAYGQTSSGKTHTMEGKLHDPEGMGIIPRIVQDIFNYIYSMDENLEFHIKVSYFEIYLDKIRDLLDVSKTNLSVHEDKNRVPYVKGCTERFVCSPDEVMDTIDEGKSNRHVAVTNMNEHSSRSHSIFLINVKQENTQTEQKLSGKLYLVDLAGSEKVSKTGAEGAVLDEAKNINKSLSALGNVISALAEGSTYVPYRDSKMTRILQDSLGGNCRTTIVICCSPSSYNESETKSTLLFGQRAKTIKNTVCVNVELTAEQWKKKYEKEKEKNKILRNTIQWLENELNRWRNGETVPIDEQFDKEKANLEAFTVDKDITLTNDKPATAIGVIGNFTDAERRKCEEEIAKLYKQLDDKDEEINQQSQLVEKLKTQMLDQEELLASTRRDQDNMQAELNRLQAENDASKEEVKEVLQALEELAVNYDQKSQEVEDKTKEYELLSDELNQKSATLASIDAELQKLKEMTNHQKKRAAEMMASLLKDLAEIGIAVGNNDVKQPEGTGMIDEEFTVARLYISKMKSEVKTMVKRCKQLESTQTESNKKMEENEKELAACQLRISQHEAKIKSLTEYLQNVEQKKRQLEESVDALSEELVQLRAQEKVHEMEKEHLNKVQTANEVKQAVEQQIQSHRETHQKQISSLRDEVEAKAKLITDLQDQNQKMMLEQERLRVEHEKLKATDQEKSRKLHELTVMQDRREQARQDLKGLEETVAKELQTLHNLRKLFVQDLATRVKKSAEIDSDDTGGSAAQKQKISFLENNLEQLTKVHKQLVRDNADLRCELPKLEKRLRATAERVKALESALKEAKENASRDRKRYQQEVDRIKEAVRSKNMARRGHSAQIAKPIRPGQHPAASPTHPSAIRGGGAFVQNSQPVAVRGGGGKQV

[2] = biological target: T2, FLAG-tagged Nesprin-4 with the WD > AA mutation (Nesp4^AA) (mouse) (UniProt Q8CII8); assay: as above
T2 sequence: T1 sequence with W245A, D246A

binding [1]: binds
binding [2]: no binding
Substance: Kif5b (kinesin-1 heavy chain) (from UniProt P33176 1-963)

Reference: PMC9537699
